# Measured values from the supplement of paper PMC8728848.
# Some of the results follow.
# What was measured:
# Assay in all cases: glycan array binding signal (z-score within array); higher = stronger binding
# Settings in all cases: glycan notation: IUPAC condensed, linker removed
# Neu5Ac(a2-8)Neu5Ac = target: Neu5Ac(a2-8)Neu5Ac
# In short: (§1)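 Negative Z-scores can be read as non-binding. The Z-score is calculated within each array and then averaged across arrays of one protein sequence at different concentrations or buffers and across linkers. Arrays, 3228 in all, were curated from the Consortium for Functional Glycomics database and kept only where the protein sequence was available.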
# [1] = target: Neu5Ac(a2-8)Neu5Ac(a2-3)Gal(b1-3)GalNAc(b1-4)[Neu5Ac(a2-3)]Gal(b1-4)Glc
# In short: as §1
# [2] = target: Neu5Ac(a2-8)Neu5Ac(a2-3)Gal(b1-3)GalNAc(b1-4)[Neu5Ac(a2-8)Neu5Ac(a2-3)]Gal(b1-4)Glc
# In short: as §1
# [3] = target: Neu5Ac(a2-8)Neu5Ac(a2-3)Gal(b1-4)Glc
# In short: as §1
# [4] = target: Neu5Ac(a2-8)Neu5Ac(a2-3)Gal(b1-4)GlcNAc
# In short: as §1
# [5] = target: Neu5Ac(a2-8)Neu5Ac(a2-3)[Gal(b1-3)GalNAc(b1-4)]Gal(b1-4)Glc
# In short: as §1
# [6] = target: Neu5Ac(a2-8)Neu5Ac(a2-3)[GalNAc(b1-4)]Gal(b1-4)Glc
# In short: as §1
# [7] = target: Neu5Ac(a2-8)Neu5Ac(a2-8)Neu5Ac
# In short: as §1
# [8] = target: Neu5Ac(a2-8)Neu5Ac(a2-8)Neu5Ac(a2-3)Gal(b1-4)Glc
# In short: as §1
# [9] = target: Neu5Ac(a2-8)Neu5Ac(a2-8)Neu5Ac(a2-3)[Gal(b1-3)GalNAc(b1-4)]Gal(b1-4)Glc
# In short: as §1
# [10] = target: Neu5Ac(a2-8)Neu5Ac(a2-8)Neu5Ac(a2-3)[GalNAc(b1-4)]Gal(b1-4)Glc
# In short: as §1
# [11] = target: Neu5Ac(a2-8)Neu5Ac(a2-8)Neu5Ac(a2-8)Neu5Ac(a2-3)[GalNAc(b1-4)]Gal(b1-4)Glc
# In short: as §1
# [12] = target: Neu5Ac(a2-8)Neu5Gc(a2-3)Gal(b1-4)GlcNAc
# In short: as §1
# [13] = target: Neu5Ac(b2-6)Gal(b1-4)GlcNAc
# In short: as §1
# Neu5Ac(b2-6)GalNAc = target: Neu5Ac(b2-6)GalNAc
# In short: as §1
# [14] = target: Neu5Ac9Ac(a2-3)Gal(b1-3)GlcNAc
# In short: as §1
# [15] = target: Neu5Ac9Ac(a2-3)Gal(b1-4)GlcNAc
# In short: as §1
# [16] = target: Neu5Ac9Ac(a2-6)Gal(b1-4)GlcNAc
# In short: as §1
# [17] = target: Neu5Gc(a2-3)Gal(b1-3)GlcNAc
# In short: as §1
# [18] = target: Neu5Gc(a2-3)Gal(b1-3)[Fuc(a1-4)]GlcNAc
# In short: as §1
# Neu5Gc(a2-3)Gal(b1-4)Glc = target: Neu5Gc(a2-3)Gal(b1-4)Glc
# In short: as §1
# [19] = target: Neu5Gc(a2-3)Gal(b1-4)GlcNAc
# In short: as §1
# [20] = target: Neu5Gc(a2-3)Gal(b1-4)GlcNAc(b1-3)Gal(b1-4)GlcNAc(b1-2)Man(a1-3)[Neu5Gc(a2-3)Gal(b1-4)GlcNAc(b1-3)Gal(b1-4)GlcNAc(b1-2)Man(a1-6)]Man(b1-4)GlcNAc(b1-4)GlcNAc
# In short: as §1
# [21] = target: Neu5Gc(a2-3)Gal(b1-4)[Fuc(a1-3)]GlcNAc
# In short: as §1
# [22] = target: Neu5Gc(a2-6)Gal(b1-4)GlcNAc
# In short: as §1
# Neu5Gc(a2-6)GalNAc = target: Neu5Gc(a2-6)GalNAc
# In short: as §1
# [23] = target: Neu5Gc(a2-8)Neu5Ac(a2-3)Gal(b1-4)GlcNAc
# In short: as §1
# [24] = target: Neu5Gc(a2-8)Neu5Gc(a2-3)Gal(b1-4)GlcNAc
# In short: as §1
# [25] = target: Neu5Gc(a2-8)Neu5Gc(a2-3)Gal(b1-4)GlcNAc(b1-3)Gal(b1-4)GlcNAc
# In short: as §1
# [26] = target: Neu5Gc(a2-8)Neu5Gc(a2-6)Gal(b1-4)GlcNAc
# In short: as §1
# [27] = target: Neu5Gc(b2-6)Gal(b1-4)GlcNAc
# In short: as §1
binder,measurement,setting,value
pilr alpha (protein) MLYGVTQPKHLSASMGGSVEIPFSFYYPWELATAPDVRISWRRGHFHRQSFYSTRPPSIHKDYVNRLFLNWTEGQKSGFLRISNLQKQDQSVYFCRVELDTRSSGRQQWQSIEGTKLSIT,glycan array binding signal (z-score),Neu5Ac(a2-8)Neu5Ac,0.165
same,glycan array binding signal (z-score),[1],-0.262
same,glycan array binding signal (z-score),[2],0.377
same,glycan array binding signal (z-score),[3],-0.807
same,glycan array binding signal (z-score),[4],-0.265
same,glycan array binding signal (z-score),[5],-0.167
same,glycan array binding signal (z-score),[6],0.799
same,glycan array binding signal (z-score),[7],-0.392
same,glycan array binding signal (z-score),[8],-0.454
same,glycan array binding signal (z-score),[9],-0.202
same,glycan array binding signal (z-score),[10],0.613
same,glycan array binding signal (z-score),[11],-0.61
same,glycan array binding signal (z-score),[12],-0.196
same,glycan array binding signal (z-score),[13],-0.768
same,glycan array binding signal (z-score),Neu5Ac(b2-6)GalNAc,-0.742
same,glycan array binding signal (z-score),[14],-0.175
same,glycan array binding signal (z-score),[15],-0.345
same,glycan array binding signal (z-score),[16],-0.47
same,glycan array binding signal (z-score),[17],-0.368
same,glycan array binding signal (z-score),[18],-0.745
same,glycan array binding signal (z-score),Neu5Gc(a2-3)Gal(b1-4)Glc,-0.544
same,glycan array binding signal (z-score),[19],0.05
same,glycan array binding signal (z-score),[20],-0.532
same,glycan array binding signal (z-score),[21],-0.261
same,glycan array binding signal (z-score),[22],-0.584
same,glycan array binding signal (z-score),Neu5Gc(a2-6)GalNAc,-0.353
same,glycan array binding signal (z-score),[23],-0.381
same,glycan array binding signal (z-score),[24],-0.278
same,glycan array binding signal (z-score),[25],0.003
same,glycan array binding signal (z-score),[26],-0.725
same,glycan array binding signal (z-score),[27],0.088
